In the supplement of paper PMC10849652:
Some of the results follow.

By UniProt entry, the sequences of proteins in these tests, tags left out. Where a name states a change or a piece, a line headed by the entry shows the natural chain unless it says otherwise.
UniProt Q9P2P6: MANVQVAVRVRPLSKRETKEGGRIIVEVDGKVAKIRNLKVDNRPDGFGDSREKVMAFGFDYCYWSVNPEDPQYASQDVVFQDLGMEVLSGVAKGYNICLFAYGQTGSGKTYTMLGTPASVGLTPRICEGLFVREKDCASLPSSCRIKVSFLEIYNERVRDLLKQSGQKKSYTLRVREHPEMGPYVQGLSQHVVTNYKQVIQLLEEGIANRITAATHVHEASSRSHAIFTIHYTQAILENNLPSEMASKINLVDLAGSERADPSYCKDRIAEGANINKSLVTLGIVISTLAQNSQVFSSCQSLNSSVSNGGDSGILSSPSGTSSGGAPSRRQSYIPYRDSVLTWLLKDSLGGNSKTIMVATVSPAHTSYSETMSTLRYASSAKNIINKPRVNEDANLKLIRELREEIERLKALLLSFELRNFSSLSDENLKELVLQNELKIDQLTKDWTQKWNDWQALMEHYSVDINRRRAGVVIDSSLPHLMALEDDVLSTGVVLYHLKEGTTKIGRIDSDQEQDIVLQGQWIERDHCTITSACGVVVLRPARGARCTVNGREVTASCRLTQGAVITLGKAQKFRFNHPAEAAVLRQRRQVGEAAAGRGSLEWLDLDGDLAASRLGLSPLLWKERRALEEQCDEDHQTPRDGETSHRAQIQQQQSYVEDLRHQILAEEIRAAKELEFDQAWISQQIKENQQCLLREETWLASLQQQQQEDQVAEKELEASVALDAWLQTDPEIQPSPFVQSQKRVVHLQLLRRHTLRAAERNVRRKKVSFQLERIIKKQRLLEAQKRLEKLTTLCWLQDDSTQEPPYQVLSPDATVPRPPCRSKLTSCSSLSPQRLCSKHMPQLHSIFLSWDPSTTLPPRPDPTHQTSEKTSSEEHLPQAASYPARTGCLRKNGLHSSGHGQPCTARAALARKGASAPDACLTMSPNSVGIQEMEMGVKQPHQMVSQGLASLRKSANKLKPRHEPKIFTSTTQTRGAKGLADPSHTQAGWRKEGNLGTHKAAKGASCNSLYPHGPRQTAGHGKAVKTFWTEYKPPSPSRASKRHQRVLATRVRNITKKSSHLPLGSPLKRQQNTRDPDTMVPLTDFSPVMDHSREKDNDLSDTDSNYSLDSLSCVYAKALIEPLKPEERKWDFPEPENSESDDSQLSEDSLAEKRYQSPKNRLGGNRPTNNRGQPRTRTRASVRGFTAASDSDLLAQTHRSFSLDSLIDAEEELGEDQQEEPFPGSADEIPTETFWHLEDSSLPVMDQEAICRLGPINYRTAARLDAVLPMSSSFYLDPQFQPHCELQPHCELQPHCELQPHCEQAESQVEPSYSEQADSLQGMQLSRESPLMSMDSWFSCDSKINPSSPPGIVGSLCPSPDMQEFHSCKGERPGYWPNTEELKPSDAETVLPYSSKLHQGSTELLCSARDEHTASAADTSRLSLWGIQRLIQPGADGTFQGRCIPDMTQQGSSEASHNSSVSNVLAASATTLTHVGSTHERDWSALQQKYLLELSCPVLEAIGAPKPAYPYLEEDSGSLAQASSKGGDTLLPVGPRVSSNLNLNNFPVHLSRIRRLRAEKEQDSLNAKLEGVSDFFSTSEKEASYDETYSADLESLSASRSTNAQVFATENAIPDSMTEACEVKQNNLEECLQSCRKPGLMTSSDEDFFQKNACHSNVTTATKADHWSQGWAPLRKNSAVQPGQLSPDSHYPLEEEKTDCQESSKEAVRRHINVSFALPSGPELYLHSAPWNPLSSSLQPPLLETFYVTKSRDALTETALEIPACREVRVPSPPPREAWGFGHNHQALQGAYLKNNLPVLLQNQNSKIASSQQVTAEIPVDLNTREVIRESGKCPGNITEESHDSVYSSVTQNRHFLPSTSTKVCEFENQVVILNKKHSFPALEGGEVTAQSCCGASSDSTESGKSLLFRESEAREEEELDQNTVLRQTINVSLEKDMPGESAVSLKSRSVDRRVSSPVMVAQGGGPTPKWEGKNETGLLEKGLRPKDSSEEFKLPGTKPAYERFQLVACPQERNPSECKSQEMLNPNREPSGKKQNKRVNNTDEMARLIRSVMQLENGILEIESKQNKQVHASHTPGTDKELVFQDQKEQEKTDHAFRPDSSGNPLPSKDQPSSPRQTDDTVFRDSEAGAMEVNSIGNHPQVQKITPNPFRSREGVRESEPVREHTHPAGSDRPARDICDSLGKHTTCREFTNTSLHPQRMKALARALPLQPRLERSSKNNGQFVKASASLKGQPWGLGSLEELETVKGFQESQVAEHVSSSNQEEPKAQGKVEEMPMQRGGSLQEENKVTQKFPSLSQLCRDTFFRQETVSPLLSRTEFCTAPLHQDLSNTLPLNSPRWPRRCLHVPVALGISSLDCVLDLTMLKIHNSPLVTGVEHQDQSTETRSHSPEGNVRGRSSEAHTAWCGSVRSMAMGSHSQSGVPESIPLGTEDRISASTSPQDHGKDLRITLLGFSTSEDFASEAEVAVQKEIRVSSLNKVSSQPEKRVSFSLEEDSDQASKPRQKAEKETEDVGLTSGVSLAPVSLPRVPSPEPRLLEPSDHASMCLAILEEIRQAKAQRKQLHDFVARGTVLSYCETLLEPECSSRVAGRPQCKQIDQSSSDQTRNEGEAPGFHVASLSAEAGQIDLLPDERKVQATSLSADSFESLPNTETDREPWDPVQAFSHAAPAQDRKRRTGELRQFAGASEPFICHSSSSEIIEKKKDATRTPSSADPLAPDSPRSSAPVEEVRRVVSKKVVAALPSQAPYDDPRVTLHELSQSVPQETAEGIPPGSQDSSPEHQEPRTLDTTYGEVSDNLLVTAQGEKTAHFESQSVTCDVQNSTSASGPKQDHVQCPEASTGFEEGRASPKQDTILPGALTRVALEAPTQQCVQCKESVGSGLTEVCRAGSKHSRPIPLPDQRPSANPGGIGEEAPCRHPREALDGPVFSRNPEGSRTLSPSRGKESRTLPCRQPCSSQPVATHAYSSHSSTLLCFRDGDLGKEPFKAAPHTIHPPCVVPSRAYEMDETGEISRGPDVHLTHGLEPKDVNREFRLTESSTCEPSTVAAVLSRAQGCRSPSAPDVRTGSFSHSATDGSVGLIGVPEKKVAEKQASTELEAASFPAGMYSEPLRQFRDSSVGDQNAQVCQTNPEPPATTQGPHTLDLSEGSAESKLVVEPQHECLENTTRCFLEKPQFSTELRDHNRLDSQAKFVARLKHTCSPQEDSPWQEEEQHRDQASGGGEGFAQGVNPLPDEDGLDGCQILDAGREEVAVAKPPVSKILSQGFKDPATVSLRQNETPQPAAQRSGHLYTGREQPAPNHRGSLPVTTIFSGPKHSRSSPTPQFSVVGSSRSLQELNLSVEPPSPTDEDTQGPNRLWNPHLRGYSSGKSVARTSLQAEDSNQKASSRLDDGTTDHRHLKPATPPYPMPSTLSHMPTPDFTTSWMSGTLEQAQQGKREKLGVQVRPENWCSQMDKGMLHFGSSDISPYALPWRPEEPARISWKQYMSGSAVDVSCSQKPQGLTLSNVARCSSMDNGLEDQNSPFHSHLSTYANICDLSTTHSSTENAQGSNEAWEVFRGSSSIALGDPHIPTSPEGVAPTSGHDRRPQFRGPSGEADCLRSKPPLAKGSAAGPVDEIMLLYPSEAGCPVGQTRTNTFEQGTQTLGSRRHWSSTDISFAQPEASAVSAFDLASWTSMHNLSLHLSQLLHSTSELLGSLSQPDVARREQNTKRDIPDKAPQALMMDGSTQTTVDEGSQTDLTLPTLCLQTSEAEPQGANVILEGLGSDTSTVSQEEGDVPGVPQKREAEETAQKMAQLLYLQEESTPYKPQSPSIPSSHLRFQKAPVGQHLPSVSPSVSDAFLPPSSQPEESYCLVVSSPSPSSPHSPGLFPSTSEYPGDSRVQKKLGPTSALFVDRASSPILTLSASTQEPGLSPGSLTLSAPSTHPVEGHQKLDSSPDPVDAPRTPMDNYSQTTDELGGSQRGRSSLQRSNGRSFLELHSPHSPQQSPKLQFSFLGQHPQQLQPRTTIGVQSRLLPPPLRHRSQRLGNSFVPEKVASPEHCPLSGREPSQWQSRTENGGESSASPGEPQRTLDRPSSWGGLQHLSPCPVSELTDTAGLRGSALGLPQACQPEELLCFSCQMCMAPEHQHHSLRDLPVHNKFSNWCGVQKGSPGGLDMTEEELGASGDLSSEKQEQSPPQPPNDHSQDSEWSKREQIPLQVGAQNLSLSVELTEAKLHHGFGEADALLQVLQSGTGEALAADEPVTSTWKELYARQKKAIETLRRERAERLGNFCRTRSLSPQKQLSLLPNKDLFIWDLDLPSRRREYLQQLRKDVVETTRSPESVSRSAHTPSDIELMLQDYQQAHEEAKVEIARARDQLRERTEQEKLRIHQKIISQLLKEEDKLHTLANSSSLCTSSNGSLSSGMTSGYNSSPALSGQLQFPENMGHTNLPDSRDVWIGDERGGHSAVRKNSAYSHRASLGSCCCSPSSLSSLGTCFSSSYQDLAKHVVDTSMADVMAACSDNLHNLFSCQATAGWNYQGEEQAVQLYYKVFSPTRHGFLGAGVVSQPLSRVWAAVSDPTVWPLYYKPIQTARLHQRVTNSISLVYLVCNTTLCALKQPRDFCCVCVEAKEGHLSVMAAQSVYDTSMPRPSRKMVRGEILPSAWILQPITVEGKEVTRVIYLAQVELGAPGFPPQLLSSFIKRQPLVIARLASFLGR
UniProt Q9NUQ6: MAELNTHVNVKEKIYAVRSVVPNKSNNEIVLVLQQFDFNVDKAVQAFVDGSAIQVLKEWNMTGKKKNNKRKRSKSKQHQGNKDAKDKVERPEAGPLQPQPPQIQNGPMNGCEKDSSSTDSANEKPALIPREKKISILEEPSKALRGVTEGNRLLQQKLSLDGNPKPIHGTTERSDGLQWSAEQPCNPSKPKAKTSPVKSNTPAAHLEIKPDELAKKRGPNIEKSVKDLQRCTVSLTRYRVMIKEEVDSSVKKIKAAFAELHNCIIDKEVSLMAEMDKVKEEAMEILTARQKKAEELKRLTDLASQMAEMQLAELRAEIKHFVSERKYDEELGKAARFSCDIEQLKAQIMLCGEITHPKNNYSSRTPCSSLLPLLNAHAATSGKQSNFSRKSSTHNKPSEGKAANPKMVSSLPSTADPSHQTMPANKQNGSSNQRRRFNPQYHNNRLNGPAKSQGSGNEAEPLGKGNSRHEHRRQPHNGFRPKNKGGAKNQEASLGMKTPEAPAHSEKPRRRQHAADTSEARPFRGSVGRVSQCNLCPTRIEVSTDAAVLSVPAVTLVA
UniProt Q92502: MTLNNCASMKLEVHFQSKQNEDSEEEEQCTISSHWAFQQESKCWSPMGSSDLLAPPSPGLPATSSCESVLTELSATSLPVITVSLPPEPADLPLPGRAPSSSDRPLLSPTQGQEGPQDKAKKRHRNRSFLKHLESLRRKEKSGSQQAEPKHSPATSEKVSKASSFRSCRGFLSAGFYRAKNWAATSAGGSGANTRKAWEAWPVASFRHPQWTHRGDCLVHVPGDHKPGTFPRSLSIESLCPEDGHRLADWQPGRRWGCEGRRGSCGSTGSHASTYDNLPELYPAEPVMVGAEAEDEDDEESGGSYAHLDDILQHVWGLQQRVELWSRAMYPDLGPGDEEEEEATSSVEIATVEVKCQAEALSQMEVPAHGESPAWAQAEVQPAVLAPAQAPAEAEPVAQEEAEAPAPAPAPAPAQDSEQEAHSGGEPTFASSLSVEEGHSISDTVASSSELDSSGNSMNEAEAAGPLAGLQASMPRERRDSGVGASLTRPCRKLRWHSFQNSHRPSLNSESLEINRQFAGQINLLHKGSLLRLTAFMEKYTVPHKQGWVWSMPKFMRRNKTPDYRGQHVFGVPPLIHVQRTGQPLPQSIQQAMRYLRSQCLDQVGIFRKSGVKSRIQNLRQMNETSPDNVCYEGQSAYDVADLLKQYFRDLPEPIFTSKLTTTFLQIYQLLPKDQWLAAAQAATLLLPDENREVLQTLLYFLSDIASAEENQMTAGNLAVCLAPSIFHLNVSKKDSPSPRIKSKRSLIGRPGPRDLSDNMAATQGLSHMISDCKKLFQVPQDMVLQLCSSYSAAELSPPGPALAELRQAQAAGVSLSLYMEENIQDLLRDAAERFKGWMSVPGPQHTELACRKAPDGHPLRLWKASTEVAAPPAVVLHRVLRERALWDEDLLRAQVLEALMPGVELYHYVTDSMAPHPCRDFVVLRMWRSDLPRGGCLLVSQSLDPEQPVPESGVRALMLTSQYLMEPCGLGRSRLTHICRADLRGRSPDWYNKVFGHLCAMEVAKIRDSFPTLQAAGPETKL
UniProt Q8N9Q2: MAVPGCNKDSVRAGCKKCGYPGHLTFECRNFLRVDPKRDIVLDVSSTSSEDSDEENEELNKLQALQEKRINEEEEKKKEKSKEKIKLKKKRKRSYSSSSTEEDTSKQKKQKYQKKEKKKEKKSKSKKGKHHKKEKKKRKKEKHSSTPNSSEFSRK

Columns and labels:
Test in all cases: log2 fold change, soluble protein after heating vs DMSO (PISA); higher = thermal stabilisation; K562 lysate, 10 uM; active = over 0.2 and 3.5 SD of the protein, either way, in both replicates (recomputed)
lapatinib = compound: CS(=O)(=O)CCNCc1ccc(-c2ccc3ncnc(Nc4ccc(OCc5cccc(F)c5)c(Cl)c4)c3c2)o1 [lapatinib]
Method in brief: (§1)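 Values give the log-two fold change in thermal stability against solvent controls, from duplicates. Crude K562 extract at 1 mg/mL protein, made by dounce homogenisation in PBS pH 7.4 with 1 mM MgCl2, was treated with 10 μM compound for 30 min. After 3 min heating across 48°C-58°C, aliquots were pooled, adjusted to 0.5% NP-40 at 4°C and centrifuged at 21,000xg for 90 min. The supernatant was measured by TMTpro 16plex LC-MS/MS with channel sums equalised.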

pictilisib = compound: CS(=O)(=O)N1CCN(Cc2cc3nc(-c4cccc5[nH]ncc45)nc(N4CCOCC4)c3s2)CC1 [pictilisib]
Method in brief: as §1

crizotinib = compound: C[C@@H](Oc1cc(-c2cnn(C3CCNCC3)c2)cnc1N)c1c(Cl)ccc(F)c1Cl [crizotinib]
Method in brief: as §1

[1] = compound: C[C@H](C1=CC=C(C=C1)C(=O)NC2=C3C=CNC3=NC=C2)N
Method in brief: as §1

duvelisib = compound: C[C@H](Nc1ncnc2nc[nH]c12)c1cc2cccc(Cl)c2c(=O)n1-c1ccccc1 [duvelisib]
Method in brief: as §1

gandotinib = compound: Cc1cc(Nc2cc(CN3CCOCC3)c3nc(C)c(Cc4ccc(Cl)cc4F)n3n2)n[nH]1 [gandotinib]
Method in brief: as §1

tozasertib = compound: Cc1cc(Nc2cc(N3CCN(C)CC3)nc(Sc3ccc(NC(=O)C4CC4)cc3)n2)n[nH]1 [tozasertib]
Method in brief: as §1

doramapimod = compound: Cc1ccc(-n2nc(C(C)(C)C)cc2NC(=O)Nc2ccc(OCCN3CCOCC3)c3ccccc23)cc1 [doramapimod]
Method in brief: as §1

bafetinib = compound: Cc1ccc(NC(=O)c2ccc(CN3CC[C@H](N(C)C)C3)c(C(F)(F)F)c2)cc1Nc1nccc(-c2cncnc2)n1 [bafetinib]
Method in brief: as §1

[2] = compound: Cc1cccc(CC(=O)N2CCc3c2ccc(-c2cn(C)c4ncnc(N)c24)c3F)n1
Method in brief: as §1

Measured: log2 fold change

SPART (UniProt Q8N0X7)
inactive: lapatinib 0.042 | pictilisib -0.03 | crizotinib 0.053 | [1] -0.042 | duvelisib -0.022 | gandotinib 0.078 | tozasertib 0 | doramapimod 0.015 | bafetinib -0.072 | [2] 0.066

STARD9 (UniProt Q9P2P6)
inactive: lapatinib -0.006 | crizotinib -0.048 | [1] 0.031 | duvelisib 0.007 | gandotinib -0.157 | tozasertib -0.007 | doramapimod 0.095 | [2] 0

SPATA7 (UniProt Q9P0W8)
inactive: lapatinib -0.048 | pictilisib -0.052 | [1] -0.602 | gandotinib 0.365 | tozasertib -0.168 | bafetinib -0.11 | [2] 0.351

SPATS2L isoform 2 (UniProt Q9NUQ6)
inactive: lapatinib 0.153 | pictilisib 0.062 | crizotinib 0.013 | [1] 0.268 | gandotinib -0.116 | tozasertib 0.032 | doramapimod 0.048 | bafetinib -0.024 | [2] -0.148

SPPL2A (UniProt Q8TCT8)
inactive: lapatinib -0.002 | pictilisib -0.059 | crizotinib -0.127 | [1] -0.302 | gandotinib -0.093 | tozasertib 0.082 | doramapimod -0.032 | bafetinib -0.127 | [2] 0.1

SRP14 (UniProt H0YLW0)
inactive: lapatinib -0.055 | pictilisib -0.004 | crizotinib -0.376 | [1] -0.162 | duvelisib 0.032 | gandotinib 0.501 | doramapimod 0.032 | bafetinib -0.028 | [2] 0.466

SRGAP2 (UniProt O75044)
inactive: lapatinib -0.024 | pictilisib 0.008 | crizotinib 0.015 | [1] -0.003 | duvelisib 0.009 | gandotinib -0.021 | tozasertib 0.035 | doramapimod -0.04 | bafetinib -0.039 | [2] 0.032

STAM (UniProt A6NMU3)
inactive: lapatinib 0.069 | crizotinib 0.047 | duvelisib -0.129 | tozasertib 0.025 | doramapimod -0.056

SSX2IP (UniProt Q9Y2D8)
inactive: [1] 0.071 | gandotinib 0.147 | tozasertib -0.063 | [2] -0.01

STARD8 isoform 2 (UniProt Q92502)
inactive: pictilisib -0.094 | crizotinib 0.079 | duvelisib 0.013 | tozasertib 0.018 | doramapimod -0.004 | bafetinib -0.23

STAB1 (UniProt Q9NY15)
inactive: lapatinib 0.006 | crizotinib -0.376 | doramapimod 0.286

2 entries drawn at random from those above, as already listed:
SRGAP2 (UniProt O75044)
inactive: lapatinib -0.024 | pictilisib 0.008 | crizotinib 0.015 | [1] -0.003 | duvelisib 0.009 | gandotinib -0.021 | tozasertib 0.035 | doramapimod -0.04 | bafetinib -0.039 | [2] 0.032

STAB1 (UniProt Q9NY15)
inactive: lapatinib 0.006 | crizotinib -0.376 | doramapimod 0.286

Continuation:

SSBP4 (UniProt U3KPY3)
inactive: pictilisib 0.026 | [1] -0.094 | gandotinib 0.171 | bafetinib -0.016 | [2] -0.053

SPRED2 (UniProt Q7Z698)
inactive: pictilisib -0.059 | bafetinib -0.076

SREK1IP1 (UniProt Q8N9Q2)
inactive: lapatinib -0.022 | crizotinib 0.079 | [1] 0.196 | gandotinib -0.111 | tozasertib 0.081 | doramapimod -0.046 | [2] -0.143

STAG2 (UniProt Q8N3U4)
inactive: lapatinib -0.096 | crizotinib 0.05 | [1] 0.009 | gandotinib 0.107 | tozasertib -0.089 | doramapimod 0.112 | [2] -0.011

SPRTN (UniProt Q9H040)
inactive: duvelisib -0.124 | tozasertib -0.085

SQOR (UniProt Q9Y6N5)
inactive: lapatinib 0.11 | crizotinib -0.081 | duvelisib -0.047 | tozasertib 0.046 | doramapimod 0.046

SS18L1 (UniProt O75177)
inactive: pictilisib 0.147 | crizotinib -0.04 | [1] -0.09 | gandotinib -0.008 | doramapimod 0 | bafetinib 0.181 | [2] 0.062

ST6GALNAC1 (UniProt Q9NSC7)
inactive: pictilisib -0.059 | crizotinib 0.015 | [1] 0.069 | duvelisib 0.028 | gandotinib -0.099 | tozasertib 0.005 | doramapimod -0.008 | bafetinib 0.01 | [2] 0.035

SRGAP2, A0A075B7B5
inactive: crizotinib 0.018 | doramapimod -0.028

SREBF1 isoform 4 (UniProt P36956)
inactive: lapatinib -0.159 | crizotinib -0.031 | duvelisib -0.037 | doramapimod -0.043

STAR (UniProt P49675)
inactive: crizotinib -0.123 | [1] 0.117 | duvelisib 0.017 | gandotinib 0.156 | tozasertib 0.063 | doramapimod 0.019 | [2] 0.142

SSX1 (UniProt Q16384)
inactive: crizotinib -0.056 | [1] 0.049 | duvelisib 0.061 | gandotinib 0.282 | tozasertib 0.049 | doramapimod 0.118 | [2] 0.266

STAT1 isoform 2 (UniProt P42224)
inactive: crizotinib -0.02 | doramapimod -0.007

SPOUT1 (UniProt Q5T280)
inactive: lapatinib 0.001 | duvelisib 0.039 | tozasertib -0.054

ST3GAL4 isoform 4 (UniProt Q11206)
inactive: pictilisib -0.103 | crizotinib 0.143 | [1] -0.087 | duvelisib -0.071 | gandotinib 0.173 | tozasertib 0.023 | doramapimod 0.008 | bafetinib 0.019 | [2] 0.121

SSBP2 (UniProt P81877)
inactive: crizotinib 0.054 | [1] 0.186 | duvelisib -0.122 | gandotinib -0.044 | tozasertib 0.153 | doramapimod -0.041 | [2] -0.097

SPTBN1 isoform 3 (UniProt Q01082)
inactive: lapatinib 0.032 | crizotinib 0.131 | duvelisib 0.092 | tozasertib -0.156 | doramapimod -0.001

SPTY2D1 (UniProt Q68D10)
inactive: pictilisib 0.178 | crizotinib 0.107 | [1] 0 | duvelisib 0.036 | gandotinib 0.169 | doramapimod 0.227 | bafetinib -0.286 | [2] 0.015

SRRD (UniProt Q9UH36)
inactive: crizotinib -0.098 | [1] -0.054 | duvelisib 0.031 | gandotinib -0.003 | doramapimod -0.053 | [2] 0.18

SPIN4 (UniProt Q56A73)
inactive: [1] 0.294 | gandotinib 0.053 | [2] -0.086
